Assay results from article PMC3383762.
No constants are given. Whether binding was seen depends on the method and setting. Binding seen in cells or lysates may run through a third protein.

The chains behind the UniProt entries cited, without tags or fusion partners. Residues count along the entry.
UniProt P19022, residues 160-906: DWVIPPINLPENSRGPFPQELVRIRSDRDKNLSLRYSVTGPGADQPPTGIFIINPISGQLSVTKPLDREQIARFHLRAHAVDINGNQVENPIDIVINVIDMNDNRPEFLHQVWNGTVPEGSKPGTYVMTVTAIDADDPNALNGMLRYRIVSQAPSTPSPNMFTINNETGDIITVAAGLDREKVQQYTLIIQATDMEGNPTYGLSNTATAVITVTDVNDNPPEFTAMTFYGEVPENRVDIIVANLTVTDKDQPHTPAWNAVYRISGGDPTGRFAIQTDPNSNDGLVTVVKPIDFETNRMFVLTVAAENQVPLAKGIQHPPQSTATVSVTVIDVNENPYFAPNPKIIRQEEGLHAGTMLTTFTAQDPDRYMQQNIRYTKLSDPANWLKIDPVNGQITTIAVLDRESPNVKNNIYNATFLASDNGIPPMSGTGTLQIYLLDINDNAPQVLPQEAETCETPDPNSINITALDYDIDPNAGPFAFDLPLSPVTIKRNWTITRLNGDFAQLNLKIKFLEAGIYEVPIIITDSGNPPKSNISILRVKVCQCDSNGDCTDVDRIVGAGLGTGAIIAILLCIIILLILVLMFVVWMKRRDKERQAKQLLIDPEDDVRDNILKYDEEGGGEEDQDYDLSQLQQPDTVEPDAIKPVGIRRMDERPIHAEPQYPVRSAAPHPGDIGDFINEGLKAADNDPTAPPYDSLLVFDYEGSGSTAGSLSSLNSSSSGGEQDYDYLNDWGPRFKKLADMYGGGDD

Target: neural (N)-cadherin (human (endogenous in uveal melanoma cell lines)) (UniProt P19022)
Test: co-IP; uveal melanoma cells; told only in the discussion and no data shown; which protein was precipitated and the conditions of the precipitation are not described

B1: Activated Leukocyte Cell Adhesion Molecule (ALCAM) (protein, UniProt Q13740 28-583)
chain: WYTVNSAYGDTIIIPCRLDVPQNLMFGKWKYEKPDGSPVFIAFRSSTKKSVQYDDVPEYKDRLNLSENYTLSISNARISDEKRFVCMLVTEDNVFEAPTIVKVFKQPSKPEIVSKALFLETEQLKKLGDCISEDSYPDGNITWYRNGKVLHPLEGAVVIIFKKEMDPVTQLYTMTSTLEYKTTKADIQMPFTCSVTYYGPSGQKTIHSEQAVFDIYYPTEQVTIQVLPPKNAIKEGDNITLKCLGNGNPPPEEFLFYLPGQPEGIRSSNTYTLTDVRRNATGDYKCSLIDKKSMIASTAITVHYLDLSLNPSGEVTRQIGDALPVSCTISASRNATVVWMKDNIRLRSSPSFSSLHYQDAGNYVCETALQEVEGLKKRESLTLIVEGKPQIKMTKKTDPSGLSKTIICHVEGFPKPAIQWTITGSGSVINQTEESPYINGRYYSKIIISPEENVTLTCTAENQLERTVNSLNVSAISIPEHDEADEISDENREKVNDQAKLIVGIVVGLLLAALVAGVVYWLYMKKSKTASKHVNKDLGNMEENKKLEENNHKTEA
- binding: no binding
